Values from PubChem BioAssay AID1259424 (University of Nebraska Medical Center, 2018)
Assay: 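Seek colon cancer survival genes behaving like KSR1, using a six-gene signature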 (primary screen). System: human HCT116 colon cancer cells. Reagent: siRNA pool against human genes, 50 nM. Measured: 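Six signature mRNAs by branched-DNA multiplex assay, scaled to two housekeeping genes and non-targeting median, log2; matched to mean KSR1 knockdown profile by Pearson correlation and euclidean distance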. Direction: mean correlation with KSR1 profile: higher = expression change more like KSR1 knockdown.
In all, the deposit lists about 14,000 reagents; shown is a random part of them. 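Higher correlation or smaller distance means closer resemblance to KSR1 loss; control wells, including KSR1 knockdowns, recur on many plates.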 Further read-outs or replicates are left out here. Reagent sequences are not shown. The record does not give: the time to read-out.

| gene | mean correlation with KSR1 profile |
| --- | --- |
| EMC4 (GeneID 51234) | 0.309 |
| DGCR6 (GeneID 8214) | -0.294 |
| KCNC1 (GeneID 3746) | -0.255 |
| SERPINA1 (GeneID 5265) | 0.299 |
| INHBB (GeneID 3625) | -0.142 |
| PADI2 (GeneID 11240) | -0.421 |
| ANXA10 (GeneID 11199) | 0.514 |
| CARD11 (GeneID 84433) | 0.829 |
| COA8 (GeneID 84334) | 0.803 |
| TNS1 (GeneID 7145) | 0.935 |
| GPR4 (GeneID 2828) | 0.425 |
| WWC2 (GeneID 80014) | 0.17 |
| WNK2 (GeneID 65268) | -0.518 |
| CACNA1C (GeneID 775) | 0.0282 |
| PREB (GeneID 10113) | 0.371 |
| ZNF185 (GeneID 7739) | -0.0259 |
| DCN (GeneID 1634) | -0.106 |
| ATG4D (GeneID 84971) | 0.173 |
| REPS2 (GeneID 9185) | 0.548 |
| MGAT1 (GeneID 4245) | 0.045 |
| RAB11FIP5 (GeneID 26056) | -0.346 |
| ECSIT (GeneID 51295) | -0.0501 |

Next part; the last 3 above are carried over.
| gene | mean correlation with KSR1 profile |
| --- | --- |
| MGAT1 (GeneID 4245) | 0.045 |
| RAB11FIP5 (GeneID 26056) | -0.346 |
| ECSIT (GeneID 51295) | -0.0501 |
| NOTCH1 (GeneID 4851) | -0.0704 |
| MMD (GeneID 23531) | -0.25 |
| IMPDH2 (GeneID 3615) | -0.235 |
| GPC6 (GeneID 10082) | -0.165 |
| VPS26C (GeneID 10311) | 0.101 |
| SMOC1 (GeneID 64093) | -0.212 |
| SGK2 (GeneID 10110) | 0.0246 |
| SLC17A4 (GeneID 10050) | -0.318 |
| ACOT2 (GeneID 10965) | -0.381 |
| ARL14 (GeneID 80117) | -0.13 |
| IVD (GeneID 3712) | -0.118 |
| HSH2D (GeneID 84941) | 0.797 |
